Laboratory results taken from PubChem BioAssay (NCATS).
Inconclusive means that the source gave no clear call. Such entries were picked first, then a sample of the others. For some of these results: Potencies beside an inconclusive call are fits to weak or partial responses and may not hold up. The source made the active and inactive calls. Unless noted, the call rests on the fitted dose curve; in most records, active means well fitted curve in the direction sought with a large enough effect; inconclusive means small, poorly fitted or top-dose-only effect, or another doubt; inactive means no such curve, though single readings can be large; an effect the other way counts as inactive or inconclusive.

Sequences of proteins named here, by UniProt entry; tags and fusion partners are left off.
UniProt P08659, whole entry, looked up: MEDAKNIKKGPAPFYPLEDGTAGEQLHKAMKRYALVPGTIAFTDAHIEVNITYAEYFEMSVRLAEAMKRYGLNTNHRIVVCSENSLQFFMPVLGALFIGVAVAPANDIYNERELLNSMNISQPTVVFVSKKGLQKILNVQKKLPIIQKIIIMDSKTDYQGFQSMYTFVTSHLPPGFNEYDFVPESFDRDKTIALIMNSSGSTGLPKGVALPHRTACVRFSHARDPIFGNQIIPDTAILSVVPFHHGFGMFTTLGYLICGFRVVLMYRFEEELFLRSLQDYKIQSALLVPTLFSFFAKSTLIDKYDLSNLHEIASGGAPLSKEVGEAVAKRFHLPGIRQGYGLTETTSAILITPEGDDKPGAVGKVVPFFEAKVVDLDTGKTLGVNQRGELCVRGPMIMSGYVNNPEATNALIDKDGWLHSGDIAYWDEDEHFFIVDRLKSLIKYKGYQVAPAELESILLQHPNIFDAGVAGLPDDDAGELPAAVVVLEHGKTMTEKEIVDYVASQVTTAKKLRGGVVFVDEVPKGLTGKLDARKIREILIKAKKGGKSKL
UniProt P78324, whole entry, looked up: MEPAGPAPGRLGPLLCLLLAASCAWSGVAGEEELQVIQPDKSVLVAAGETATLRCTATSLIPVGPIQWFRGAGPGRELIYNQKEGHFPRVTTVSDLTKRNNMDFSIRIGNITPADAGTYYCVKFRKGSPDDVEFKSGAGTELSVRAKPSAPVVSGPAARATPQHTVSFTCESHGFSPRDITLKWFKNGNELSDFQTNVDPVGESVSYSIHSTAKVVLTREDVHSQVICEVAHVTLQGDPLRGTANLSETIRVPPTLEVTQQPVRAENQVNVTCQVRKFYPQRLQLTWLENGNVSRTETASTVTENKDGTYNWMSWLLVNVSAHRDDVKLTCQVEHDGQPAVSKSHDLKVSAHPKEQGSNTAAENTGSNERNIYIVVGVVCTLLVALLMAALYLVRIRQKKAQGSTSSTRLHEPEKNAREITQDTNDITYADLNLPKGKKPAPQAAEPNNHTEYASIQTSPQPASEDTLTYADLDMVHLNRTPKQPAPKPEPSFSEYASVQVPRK
UniProt Q08722, whole entry, looked up: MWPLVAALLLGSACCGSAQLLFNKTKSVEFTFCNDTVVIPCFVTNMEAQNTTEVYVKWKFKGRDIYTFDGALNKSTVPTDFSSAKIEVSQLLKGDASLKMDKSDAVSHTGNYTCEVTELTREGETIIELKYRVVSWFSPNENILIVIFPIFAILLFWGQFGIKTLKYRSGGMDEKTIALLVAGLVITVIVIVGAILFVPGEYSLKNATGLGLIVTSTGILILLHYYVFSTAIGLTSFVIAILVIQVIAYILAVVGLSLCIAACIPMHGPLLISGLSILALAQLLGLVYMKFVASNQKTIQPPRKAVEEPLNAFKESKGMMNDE

Tests used:
[1] = Quantitative High-Throughput drug screen in 47 multiple myeloma cell lines against the NCATS MIPE library collection: Delta47_JCRB cell viability assay (AID 1918925; further: nearly all actives have a fitted effect of over 45% in size); conditions: Delta47 myeloma viability, CellTiter-Glo ATP, 48 h; series mostly up to 45.8 µM
How it was run: (§1)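 CellTiter-Glo luminescence (ATP) after 48 h compound exposure, 37C/5% CO2; 500 cells/well; MIPE 4.0 approved/investigational drugs pinned in; DMSO = 100%, media only = 0% viability.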

[2] = Quantitative High-Throughput drug screen in 47 multiple myeloma cell lines against the NCATS MIPE library collection: ARP1_JJKsccF8 cell viability assay (AID 1918928; further: nearly all actives have a fitted effect of over 40% in size)
How it was run: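 Viability screen: myeloma cells (500/well) incubated 48 h at 37 °C, humidified 5% CO2, with pinned library compounds; CellTiter-Glo added, luminescence read; DMSO wells set 100%, medium-only wells 0%.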

[3] = Quantitative High-Throughput drug screen in 47 multiple myeloma cell lines against the NCATS MIPE library collection: H1112_PLB cell viability assay (AID 1918967; further: nearly all actives have a fitted effect of over 30% in size)
How it was run: as §1

[4] = Quantitative High-Throughput drug screen in 47 multiple myeloma cell lines against the NCATS MIPE library collection: KMS12BM_JCRB cell viability assay (AID 1918971); further: nearly all actives have a fitted effect of over 35% in size
How it was run: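 Relative luminescence from CellTiter-Glo served as the viability signal, referenced to DMSO-treated (100%) and cell-free medium (0%) controls. Treatment lasted 48 hours at 37C with 500 cells per well.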

[5] = Quantitative High-Throughput drug screen in 47 multiple myeloma cell lines against the NCATS MIPE library collection: KMS34_JCRB cell viability assay (AID 1918985); further: nearly all actives have a fitted effect of over 40% in size
How it was run: (§2)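 Cells were exposed to library compounds for 48 hours, after which ATP was measured by CellTiter-Glo. Signal was taken as median relative luminescence units.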

[6] = Quantitative High-Throughput drug screen in 47 multiple myeloma cell lines against the NCATS MIPE library collection: OCIMY7_PLB cell viability assay (AID 1918987); further: nearly all actives have a fitted effect of over 65% in size
How it was run: as §2

[7] = Quantitative High-Throughput drug screen in 47 multiple myeloma cell lines against the NCATS MIPE library collection: OPM1_PLB cell viability assay (AID 1918989); further: nearly all actives have a fitted effect of over 40% in size
How it was run: as §2

[8] = target: Luciferin 4-monooxygenase (Photinus pyralis) (UniProt P08659); assay: Biochemical firefly luciferase enzyme assay for NPC (AID 624030); further: nearly all actives have a fitted effect of over 70% in size
How it was run: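 Purified P. pyralis luciferase at 10 nM in 50 mM Tris Acetate (final), luminescence read within 5 minutes of enzyme addition to compounds. Activity normalised to PTC124 versus DMSO; concentration-response curves classed by r2, magnitude and activity.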

[9] = Quantitative High-Throughput drug screen in 47 multiple myeloma cell lines against the NCATS MIPE library collection: JJN3_DSMZ cell viability assay (AID 1918966; further: nearly all actives have a fitted effect of over 50% in size)
How it was run: as §1

[10] = Quantitative High-Throughput drug screen in 47 multiple myeloma cell lines against the NCATS MIPE library collection: OCIMY1_PLB cell viability assay (AID 1918979); further: nearly all actives have a fitted effect of over 35% in size
How it was run: as §2

[11] = Quantitative High-Throughput drug screen in 47 multiple myeloma cell lines against the NCATS MIPE library collection: MM1S_ATCC cell viability assay (AID 1918980); further: nearly all actives have a fitted effect of over 45% in size
How it was run: as §2

ATS95 = assay: qHTS profiling for inhibitors of Plasmodium falciparum proliferation (AID 504749); further: nearly all actives have a fitted effect of over 60% in size; conditions: P. falciparum in erythrocytes, SYBR Green DNA, 72 h; series mostly up to 28.7 µM
How it was run: (§3)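 Each compound contacts P. falciparum-infected red blood cells for 72 h at 37 C; lysis buffer (Tris, EDTA, saponin, Triton X, SYBR Green I) is added and fluorescence measured next morning; values normalized to controls.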

CP237 = assay: as above; conditions: P. falciparum in erythrocytes, SYBR Green DNA, 72 h; series mostly up to 28.7 µM
How it was run: as §3

Dd2 = assay: as above; conditions: P. falciparum in erythrocytes, SYBR Green DNA, 72 h; series mostly up to 28.7 µM
How it was run: as §3

[12] = Cell Viability - HepG2 (AID 433; calls by dose curve;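 further: cells exposed to compound for 40 hours; potency for ATP loss meaning cytotoxicity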); conditions: qHTS
How it was run: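 In this qHTS format, a 40 h, 37 °C compound incubation of HepG2 cells in complete medium precedes a 20 min CellTiter-Glo step at room temperature. Tamoxifen and doxorubicin serve as positive controls; Hill-equation fits yield AC50.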

[13] = Quantitative High-Throughput drug screen in 47 multiple myeloma cell lines against the NCATS MIPE library collection: EJM_DSMZ cell viability assay (AID 1918926; further: nearly all actives have a fitted effect of over 30% in size)
How it was run: as §1

[14] = Quantitative High-Throughput drug screen in 47 multiple myeloma cell lines against the NCATS MIPE library collection: MMM1_PLB cell viability assay (AID 1918976); further: nearly all actives have a fitted effect of over 35% in size
How it was run: as §2

[15] = qHTS of pediatric cancer cell lines to identify multiple opportunities for drug repurposing: Confirmatory screen for Rh41 cells (AID 1347123); further: nearly all actives have a fitted effect of over 60% in size
How it was run: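 Viability after 48 h compound treatment at 37C, 500-1,000 cells/well, read as ATP luminescence with CellTiter-Glo. Primary screens used 11-point (MIPE, 0.78 nM-46 µM) or 8-point (NPC, 0.59 nM-46 µM) final concentrations; follow-up screens used 11-point dilutions.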

[16] = Primary qHTS for inhibitors of La Crosse Virus (LACV) - induced cell death in SH-SY5Y cells (AID 1508616)
How it was run: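 SH-SY5Y, 6000 cells/well; cpd via pin tool in DMSO; LACV 0.01 MOI; 6 d 37C 5% CO2; ATPLite, 5 min RT; luminescence normalized to ±virus DMSO controls.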

[17] = target: Tyrosine-protein phosphatase non-receptor type substrate 1 (Homo sapiens) + Leukocyte surface antigen CD47 (Homo sapiens) (UniProt P78324+Q08722); assay: CD47-SIRPalpha protein protein interaction - Alpha assay qHTS validation (AID 1347059);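 further: bead proximity luminescence from CD47 binding SIRPalpha after compound preincubation with SIRPalpha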
How it was run: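 SIRPalpha-biotin 25 nM + cpd, 30 min RT, dark; add CD47-His 12.5 nM, 30 min; add Ni-NTA/SAV beads 10 ug/mL, 30 min; AlphaScreen. Buffer PBS pH 7.4 + 0.05% IGEPAL CA-630. Non-biotinylated SIRPalpha as control inhibitor.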
Potency means the concentration at half of the fitted maximal effect.

Cc1ccc(CN2CCNCC2)cc1NC(=O)CNc1ccc(F)c(F)c1
Potency [1]: inactive | Potency [2]: inconclusive: 13.2 µM [cytotoxic, partial curve, poor fit] | Potency [3]: inactive | Potency [4]: inconclusive: 16.6 µM [cytotoxic, partial curve, poor fit] | Potency [5]: inconclusive: 37.2 µM [cytotoxic, single point] | Potency [6]: inconclusive: 29.6 µM [rising, single point] | Potency [7]: inconclusive: 23.5 µM [cytotoxic, partial curve, poor fit]

CC(C)N1[N]C(=C2C=c3cc(O)ccc3=N2)c2c(N)ncnc21
Potency [8]: inconclusive: 28.7 µM [inhibitor, partial curve, poor fit] | Potency [9]: active: 0.209 µM | Potency [3]: active: 4.18 µM | Potency [10]: inconclusive: 0.526 µM [cytotoxic, full curve] | Potency [11]: active: 0.469 µM

CC(=O)O[C@]1(C(C)=O)CC[C@H]2[C@@H]3C=C(Cl)C4=CC(=O)CC[C@]4(C)[C@H]3CC[C@@]21C
Potency (ATS95): inconclusive: 8.91 µM [inhibitor, single point] | Potency (CP237): inconclusive: 11.2 µM [inhibitor, single point] | Potency (Dd2): inconclusive: 12.6 µM [inhibitor, partial curve]

NNC(=O)c1ccncc1
Potency [12]: inactive: > 92 µM | Potency [13]: inconclusive: 2.09 µM [cytotoxic, full curve] | Potency [14]: inconclusive: 0.0026 µM [rising, full curve, poor fit] | Potency [10]: inactive | Potency [11]: inconclusive: 5.9 µM [rising, partial curve, poor fit] | Potency [6]: inconclusive: 14.8 µM [rising, partial curve, poor fit]

Nc1nc(Cl)nc2c1ncn2[C@@H]1O[C@H](CO)[C@@H](O)[C@@H]1F
Potency [15]: inconclusive: 11.7 µM [cytotoxic, partial curve]

CCCCOCCOC(=O)c1cccnc1
Potency [16]: inconclusive: 3.16 µM [inhibitor, single point]

CN1C[C@H](C(=O)N[C@]2(C)O[C@@]3(O)[C@@H]4CCCN4C(=O)[C@H](Cc4ccccc4)N3C2=O)C[C@@H]2c3cccc4[nH]cc(c34)C[C@H]21
Potency [8]: inactive | Potency [17]: inconclusive: 18.5 µM [inhibitor, single point]

COc1cc(C[C@@H](CO)[C@H](CO)Cc2ccc(O)c(OC)c2)ccc1O
Potency [15]: inconclusive: 32.9 µM [cytotoxic, single point] | Potency [1]: active: 0.662 µM | Potency [13]: active: 0.264 µM | Potency [9]: inconclusive: 1.18 µM [rising, partial curve, poor fit] | Potency [4]: inconclusive: 0.264 µM [rising, full curve, poor fit] | Potency [14]: inconclusive: 0.0469 µM [rising, full curve] | Potency [5]: inactive

CCc1ccc(C(=O)Nc2cc(CN3CCN(C)CC3)cc(C(F)(F)F)c2)cc1C#Cc1cnc2ccnn2c1
Potency [2]: active: 5.9 µM | Potency [7]: active: 7.43 µM

CC[C@]1(O)CC2CN(CCc3c([nH]c4ccccc34)[C@@](C(=O)OC)(c3cc4c(cc3OC)N(C)[C@H]3[C@@](O)(C(=O)OC)[C@H](OC(C)=O)[C@]5(CC)C=CCN6CC[C@]43[C@@H]65)C2)C1 (stereo not given in full)
Potency (Dd2): active: 0.178 µM

C[C@@H]1CC[C@@]2(OC1)O[C@H]1C[C@H]3[C@@H]4CC[C@H]5C[C@@H](O)CC[C@]5(C)[C@H]4CC(=O)[C@]3(C)[C@H]1[C@@H]2C
Potency [16]: inconclusive: 0.011 µM [inhibitor, partial curve, poor fit]

NCc1ccccc1Sc1ccccc1CO
Potency (ATS95): inconclusive: 11.2 µM [inhibitor, single point]

O=C(Nc1ccc2c(c1)CCN(Cc1ncn[nH]1)C2)c1ccccc1-c1ccc(C(F)(F)F)cc1
Potency [17]: inactive

O=C(Oc1ccccc1)c1ccccc1O
Potency [12]: inactive: > 92 µM

Cc1cc(O)cc2c1O[C@](C)(CCC[C@H](C)CCC[C@H](C)CCCC(C)C)CC2
Potency (CP237): inconclusive: 10 µM [inhibitor, single point]
